# Values of other authors in patent publication US11583508B2, “Use of mitoxantrone liposome for treating non-Hodgkin's lymphoma” (CSPC ZHONGQI PHARMACEUTICAL TECHNOLOGY (SHIJIAZHUANG) CO., …, priority 2018, dated 2023).
# Where two headings read alike, the source gives them in different places. At least one compound was matched to its structure with a doubt left. Some results were stated once for a whole list of compounds, not compound by compound.
# Tested on: relapsed/refractory PTCL (RR-PTCL)
# Settings: monotherapy, second-line
smiles,measurement,setting,value
O=C(/C=C/c1cccc(S(=O)(=O)Nc2ccccc2)c1)NO [Belinostat],"Primary endpoint: (ORR, %)",listed as belinostat,lower than 30%
C#CCC(Cc1cnc2nc(N)nc(N)c2n1)c1ccc(C(=O)N[C@@H](CCC(=O)O)C(=O)O)cc1 (stereo partly shown) [Pralatrexate],"Primary endpoint: (ORR, %)",listed as pralatrexate,lower than 30%
Nc1cc(F)ccc1NC(=O)c1ccc(CNC(=O)/C=C/c2cccnc2)cc1 [Chidamide],"Primary endpoint: (ORR, %)",,27.8%
same,"Primary endpoint: (ORR, %)",listed as chidamide,lower than 30%
